# Reference: paper PMC5472812
# By UniProt entry, the sequences of proteins in these tests, tags left out. Where a name states a change or a piece, a line headed by the entry shows the natural chain unless it says otherwise.
# UniProt Q9A749: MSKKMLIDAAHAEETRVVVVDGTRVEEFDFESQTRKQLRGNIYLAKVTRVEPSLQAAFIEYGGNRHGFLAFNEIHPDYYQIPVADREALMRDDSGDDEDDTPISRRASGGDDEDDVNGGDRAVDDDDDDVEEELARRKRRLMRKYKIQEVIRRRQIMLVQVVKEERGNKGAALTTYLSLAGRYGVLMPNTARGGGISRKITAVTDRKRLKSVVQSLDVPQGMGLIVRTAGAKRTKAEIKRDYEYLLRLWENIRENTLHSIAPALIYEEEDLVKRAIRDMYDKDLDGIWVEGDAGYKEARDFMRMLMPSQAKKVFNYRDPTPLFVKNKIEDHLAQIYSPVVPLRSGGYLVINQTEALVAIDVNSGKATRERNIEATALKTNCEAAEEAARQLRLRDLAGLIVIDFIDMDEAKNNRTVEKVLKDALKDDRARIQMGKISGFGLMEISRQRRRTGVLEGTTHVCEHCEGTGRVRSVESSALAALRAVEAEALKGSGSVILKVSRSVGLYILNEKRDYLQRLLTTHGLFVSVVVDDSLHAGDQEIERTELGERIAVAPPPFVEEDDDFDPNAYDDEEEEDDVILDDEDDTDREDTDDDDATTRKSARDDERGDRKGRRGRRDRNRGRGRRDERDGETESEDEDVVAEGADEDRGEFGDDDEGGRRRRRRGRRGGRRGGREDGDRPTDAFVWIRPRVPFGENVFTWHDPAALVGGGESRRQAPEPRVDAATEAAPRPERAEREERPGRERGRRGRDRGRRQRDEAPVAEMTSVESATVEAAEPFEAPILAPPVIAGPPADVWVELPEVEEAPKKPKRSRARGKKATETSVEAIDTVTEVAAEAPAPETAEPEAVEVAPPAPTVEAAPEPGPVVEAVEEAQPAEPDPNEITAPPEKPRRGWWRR
# UniProt A0A0H3CG88: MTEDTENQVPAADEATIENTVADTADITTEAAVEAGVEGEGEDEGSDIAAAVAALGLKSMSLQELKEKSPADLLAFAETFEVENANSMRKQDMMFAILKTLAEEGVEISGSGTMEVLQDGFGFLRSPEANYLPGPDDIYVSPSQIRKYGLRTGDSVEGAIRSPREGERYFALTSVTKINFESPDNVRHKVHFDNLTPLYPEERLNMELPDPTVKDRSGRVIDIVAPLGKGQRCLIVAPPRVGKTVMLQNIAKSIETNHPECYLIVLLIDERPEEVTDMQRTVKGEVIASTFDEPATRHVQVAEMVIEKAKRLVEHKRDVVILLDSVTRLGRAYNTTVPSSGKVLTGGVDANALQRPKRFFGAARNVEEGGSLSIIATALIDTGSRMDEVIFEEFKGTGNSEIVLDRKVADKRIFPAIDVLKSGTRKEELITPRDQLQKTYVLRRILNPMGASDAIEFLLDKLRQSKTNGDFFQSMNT
# UniProt A0A0H3C5U2: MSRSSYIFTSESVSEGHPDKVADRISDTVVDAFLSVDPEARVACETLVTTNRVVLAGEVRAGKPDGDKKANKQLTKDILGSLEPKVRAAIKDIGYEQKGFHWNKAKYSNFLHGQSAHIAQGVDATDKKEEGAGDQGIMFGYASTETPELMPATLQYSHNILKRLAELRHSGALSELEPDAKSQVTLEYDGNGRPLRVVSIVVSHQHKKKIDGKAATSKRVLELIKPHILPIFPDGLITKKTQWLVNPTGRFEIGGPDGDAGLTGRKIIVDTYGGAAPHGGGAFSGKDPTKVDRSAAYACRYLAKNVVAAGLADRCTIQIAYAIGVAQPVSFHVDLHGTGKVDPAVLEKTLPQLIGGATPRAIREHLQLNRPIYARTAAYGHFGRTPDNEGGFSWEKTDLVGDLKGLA
# UniProt A0A0H3C629: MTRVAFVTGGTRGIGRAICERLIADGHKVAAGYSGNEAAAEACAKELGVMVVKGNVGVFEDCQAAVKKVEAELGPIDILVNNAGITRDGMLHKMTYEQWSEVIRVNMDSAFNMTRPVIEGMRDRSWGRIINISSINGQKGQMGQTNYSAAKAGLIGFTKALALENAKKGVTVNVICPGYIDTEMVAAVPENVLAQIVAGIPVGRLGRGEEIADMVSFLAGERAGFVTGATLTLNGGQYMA
# UniProt A0A0H3CCW5: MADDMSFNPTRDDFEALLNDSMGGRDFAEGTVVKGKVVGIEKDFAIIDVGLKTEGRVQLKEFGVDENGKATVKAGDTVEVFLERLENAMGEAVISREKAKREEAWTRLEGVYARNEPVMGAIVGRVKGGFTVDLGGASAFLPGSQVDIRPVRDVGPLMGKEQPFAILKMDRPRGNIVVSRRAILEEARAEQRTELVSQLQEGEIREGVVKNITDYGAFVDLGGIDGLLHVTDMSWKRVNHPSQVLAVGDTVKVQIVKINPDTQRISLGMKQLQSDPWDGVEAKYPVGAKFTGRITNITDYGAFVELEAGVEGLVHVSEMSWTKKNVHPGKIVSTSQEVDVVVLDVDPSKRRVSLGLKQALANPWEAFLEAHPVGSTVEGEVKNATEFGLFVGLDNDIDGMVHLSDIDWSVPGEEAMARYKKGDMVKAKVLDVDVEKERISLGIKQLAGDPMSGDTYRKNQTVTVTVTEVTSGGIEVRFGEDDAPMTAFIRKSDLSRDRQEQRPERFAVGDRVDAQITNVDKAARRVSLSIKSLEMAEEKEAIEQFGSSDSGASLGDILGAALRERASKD
# UniProt A0A0H3C4B5: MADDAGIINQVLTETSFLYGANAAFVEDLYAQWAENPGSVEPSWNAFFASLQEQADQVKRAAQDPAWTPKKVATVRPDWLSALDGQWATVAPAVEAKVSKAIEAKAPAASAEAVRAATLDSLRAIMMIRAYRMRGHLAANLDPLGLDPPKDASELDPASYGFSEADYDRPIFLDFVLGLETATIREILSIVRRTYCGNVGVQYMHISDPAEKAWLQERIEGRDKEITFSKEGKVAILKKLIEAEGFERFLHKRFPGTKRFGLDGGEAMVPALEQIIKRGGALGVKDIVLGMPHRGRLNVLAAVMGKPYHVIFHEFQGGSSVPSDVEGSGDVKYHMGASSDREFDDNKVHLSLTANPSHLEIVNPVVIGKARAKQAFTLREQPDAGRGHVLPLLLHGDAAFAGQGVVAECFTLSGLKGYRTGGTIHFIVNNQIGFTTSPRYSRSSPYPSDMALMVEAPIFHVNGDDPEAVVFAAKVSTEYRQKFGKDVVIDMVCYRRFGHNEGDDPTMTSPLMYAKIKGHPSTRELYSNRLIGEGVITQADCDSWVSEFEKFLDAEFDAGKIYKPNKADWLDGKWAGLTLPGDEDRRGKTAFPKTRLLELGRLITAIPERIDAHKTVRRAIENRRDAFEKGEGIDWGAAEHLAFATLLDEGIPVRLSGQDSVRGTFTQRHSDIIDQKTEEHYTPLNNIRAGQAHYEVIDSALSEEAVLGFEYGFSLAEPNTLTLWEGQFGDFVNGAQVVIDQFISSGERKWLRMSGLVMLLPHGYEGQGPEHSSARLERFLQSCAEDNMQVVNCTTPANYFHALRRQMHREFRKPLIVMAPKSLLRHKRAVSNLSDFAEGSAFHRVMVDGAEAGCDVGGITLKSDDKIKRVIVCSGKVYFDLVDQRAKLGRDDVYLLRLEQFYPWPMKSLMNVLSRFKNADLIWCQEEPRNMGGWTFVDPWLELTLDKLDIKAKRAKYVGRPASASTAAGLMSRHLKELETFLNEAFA
# UniProt A0A0H3C896: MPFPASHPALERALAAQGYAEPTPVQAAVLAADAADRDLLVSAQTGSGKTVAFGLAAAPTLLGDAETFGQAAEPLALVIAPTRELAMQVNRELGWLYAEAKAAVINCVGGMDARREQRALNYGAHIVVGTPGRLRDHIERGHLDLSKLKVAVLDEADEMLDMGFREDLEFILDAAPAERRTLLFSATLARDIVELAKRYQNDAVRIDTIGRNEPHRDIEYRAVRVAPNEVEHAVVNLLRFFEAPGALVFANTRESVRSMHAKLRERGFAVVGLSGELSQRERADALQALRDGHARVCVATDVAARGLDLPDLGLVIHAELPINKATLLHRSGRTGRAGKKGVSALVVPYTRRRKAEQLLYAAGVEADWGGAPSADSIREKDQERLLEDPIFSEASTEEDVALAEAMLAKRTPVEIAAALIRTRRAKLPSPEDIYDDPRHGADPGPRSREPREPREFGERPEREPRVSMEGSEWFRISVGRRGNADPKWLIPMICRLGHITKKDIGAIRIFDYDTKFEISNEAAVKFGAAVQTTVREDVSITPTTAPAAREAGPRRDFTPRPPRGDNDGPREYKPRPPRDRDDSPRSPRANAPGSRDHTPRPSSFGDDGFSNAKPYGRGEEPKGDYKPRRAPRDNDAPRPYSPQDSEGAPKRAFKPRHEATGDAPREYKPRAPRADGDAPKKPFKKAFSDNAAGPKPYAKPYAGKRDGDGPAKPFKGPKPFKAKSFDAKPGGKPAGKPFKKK
# UniProt A0A0H3CAA2: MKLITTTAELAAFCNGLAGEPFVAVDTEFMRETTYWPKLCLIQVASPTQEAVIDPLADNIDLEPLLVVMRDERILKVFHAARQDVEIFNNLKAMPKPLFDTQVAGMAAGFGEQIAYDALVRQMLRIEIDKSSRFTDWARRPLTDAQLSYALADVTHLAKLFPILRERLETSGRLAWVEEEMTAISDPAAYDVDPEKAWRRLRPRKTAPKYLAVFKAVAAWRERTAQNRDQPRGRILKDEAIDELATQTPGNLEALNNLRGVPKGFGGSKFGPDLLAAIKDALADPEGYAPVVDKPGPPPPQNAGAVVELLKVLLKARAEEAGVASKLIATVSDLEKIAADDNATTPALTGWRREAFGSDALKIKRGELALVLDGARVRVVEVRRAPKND
# UniProt A0A0H3C8I9: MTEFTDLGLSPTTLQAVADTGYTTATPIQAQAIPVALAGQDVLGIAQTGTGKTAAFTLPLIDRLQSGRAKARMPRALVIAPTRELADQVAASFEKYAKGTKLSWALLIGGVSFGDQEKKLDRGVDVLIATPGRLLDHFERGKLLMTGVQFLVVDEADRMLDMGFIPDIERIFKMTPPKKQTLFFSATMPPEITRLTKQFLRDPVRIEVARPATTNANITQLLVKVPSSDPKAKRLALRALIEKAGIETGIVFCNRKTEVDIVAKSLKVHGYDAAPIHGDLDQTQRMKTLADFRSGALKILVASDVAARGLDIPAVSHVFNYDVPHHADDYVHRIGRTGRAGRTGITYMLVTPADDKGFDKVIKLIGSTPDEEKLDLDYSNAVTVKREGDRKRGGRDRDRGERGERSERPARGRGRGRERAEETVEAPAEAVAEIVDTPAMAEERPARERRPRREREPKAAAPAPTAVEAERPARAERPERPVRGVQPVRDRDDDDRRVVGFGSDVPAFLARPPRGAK
# Biological target: FLAG-tagged RNase E (Caulobacter crescentus NA1000) (UniProt Q9A749)
# Assay: affinity purification with mass spectrometry; FLAG-RNase E captured from clarified C. crescentus lysate on anti-FLAG M2 affinity gel (2 h, 4°C; 20 mM Tris-HCl pH 7.5, 250 mM NaCl, 5 mM EDTA), eluted with FLAG peptide, SDS-PAGE, bands identified by MALDI fingerprinting; cells grown at 30°C or 15°C; wild type or ΔrhlB; 15°C extracts also pretreated with RNase A
row,binding,Substance
1,binds,transcription terminator Rho (CCNA_03876) (from UniProt A0A0H3CG88) (enzyme)
2,binds,methionine adenosyltransferase (CCNA_00048) (from UniProt A0A0H3C5U2) (enzyme)
3,binds,acetoacetyl coenzyme A (acetoacetyl-CoA) reductase (CCNA_00545) (from UniProt A0A0H3C629)

# Second part, the substance before the results:
row,Substance,binding
1,small subunit ribosomal protein S1 (CCNA_03702) (from UniProt A0A0H3CCW5),binds
2,2-oxoglutarate dehydrogenase E1 component (CCNA_00342) (from UniProt A0A0H3C4B5) (enzyme),binds
3,DEAD-box RNA helicase CCNA_01546 (from UniProt A0A0H3C896) (enzyme),binds
4,RNase D (from UniProt A0A0H3CAA2) (enzyme),binds

# Biological target: FLAG-tagged RhlE (Caulobacter crescentus NA1000)
# Assay: affinity purification with mass spectrometry; FLAG-RhlE captured from clarified C. crescentus MM84 lysate on anti-FLAG M2 affinity gel (2 h, 4°C; 20 mM Tris-HCl pH 7.5, 250 mM NaCl, 5 mM EDTA), eluted with FLAG peptide, SDS-PAGE, bands identified by MALDI fingerprinting; cells grown at 30°C or 15°C
row,binding,Substance
1,binds,RNase E (from UniProt Q9A749) (enzyme)
2,binds,methionine adenosyltransferase (CCNA_00048) (from UniProt A0A0H3C5U2) (enzyme)
3,binds,DEAD-box RNA helicase RhlB (from UniProt A0A0H3C8I9) (enzyme)

# These are yes or no findings as the source states them, for the method shown. Binding seen in cells or lysates may run through a third protein. A yes stands for co-enrichment or nearness to the bait. Other partners may have been found.
